Test results reported in paper PMC7139957.
These are yes or no findings as the source states them, for the method shown. In cells and extracts the contact can be indirect. Some entries that bind do so weakly or less than the wild type.

Sequences of proteins named here, by UniProt entry; tags and fusion partners are left off. A change or cut given only in a name is not applied to a line headed by its entry.
UniProt P05556: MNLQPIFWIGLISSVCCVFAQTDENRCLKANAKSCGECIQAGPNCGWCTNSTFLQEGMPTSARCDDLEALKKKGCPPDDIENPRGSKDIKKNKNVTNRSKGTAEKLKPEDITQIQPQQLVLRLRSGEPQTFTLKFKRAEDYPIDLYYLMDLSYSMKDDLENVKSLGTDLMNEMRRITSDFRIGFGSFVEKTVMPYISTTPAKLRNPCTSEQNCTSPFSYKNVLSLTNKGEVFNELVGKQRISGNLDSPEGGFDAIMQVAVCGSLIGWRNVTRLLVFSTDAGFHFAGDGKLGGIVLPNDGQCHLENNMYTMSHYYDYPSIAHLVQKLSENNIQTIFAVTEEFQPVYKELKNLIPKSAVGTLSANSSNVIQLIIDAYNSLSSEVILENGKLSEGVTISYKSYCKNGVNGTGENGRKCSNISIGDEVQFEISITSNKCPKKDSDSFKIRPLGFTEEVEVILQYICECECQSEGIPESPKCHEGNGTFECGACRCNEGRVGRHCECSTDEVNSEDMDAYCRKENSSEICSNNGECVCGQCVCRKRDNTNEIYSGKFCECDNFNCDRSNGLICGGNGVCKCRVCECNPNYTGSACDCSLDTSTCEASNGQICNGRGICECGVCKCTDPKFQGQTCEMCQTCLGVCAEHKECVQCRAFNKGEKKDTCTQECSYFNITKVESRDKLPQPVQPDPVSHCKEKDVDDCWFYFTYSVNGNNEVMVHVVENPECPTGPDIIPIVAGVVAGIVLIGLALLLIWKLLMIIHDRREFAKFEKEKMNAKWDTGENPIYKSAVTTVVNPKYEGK

Target: T1, trapping Trx1 C35S mutant (thioredoxin-1 with Cys-X-X-Ser active site) (UniProt P10599)
T1 sequence: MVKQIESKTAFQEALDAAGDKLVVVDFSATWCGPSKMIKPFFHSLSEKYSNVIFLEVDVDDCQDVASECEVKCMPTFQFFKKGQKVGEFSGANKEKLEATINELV
Assay: pull-down; intermediate trapping: His-tagged Trx1 C35S immobilized and reduced with 10 mM DTT on a His-Trap column; 10-20 mg protein of lysate of α7wt-transfected HT1080 cells loaded; eluted with 10 mM DTT; immunoblot with integrin β1 antiserum; only the target purified

binding: binds
Substance: integrin β1 subunit (from UniProt P05556 21-798) (receptor)
